Experimental data: patent publication EP4671280A1
No constants are given. Whether binding was seen depends on the method and setting. Some entries that bind do so weakly or less than the wild type.

B1: Murine antibody 23-H4F3 (antibody, V domains shown)
VH: QVQLQQSGPELVKPGASVRISCKASGYTFTSYYIHWVKQRPGQGLEWIGWIYPGNVNTKYNEKFKGKATLTADKSSSTAYMQLISLTSEDSAVYFCARGVYYFDFWGQGTTLTVSS
VL: SIVMTQTPKFLLVSAGDRVTLTCKASQSVSNDVAWFQQKPGQSPKLLIYYALNRYTGVPDRFTGSGYGTDFTFTISTVQAEDLAVYFCQQDYSSPYTFGGGTKLEIK
B2: Murine antibody 32-A12C7 (antibody, V domains shown)
VH: QVQLQQPGAELVMPGASVKMSCKASGYTFTDYWMHWVKQRPGQGLEWIGAIDTSDSYTSYNQKFKGKATLTVDESSSTAYMQLSSLTSEDSAVYYCARWGSTMITWGYGMDNWGQGTSVTVSS
VL: DIQMTQTTSSLSASLGDRVTISCRASQDINNYLNWYQQKPDGTVKLLIYYTSRLHSGVPSRFSGSGSGTDYSLTISNLEQEDIATYFCQQGNTLPWTFGGGTKLEIK
B3: Murine antibody 6-B9B6 (antibody, V domains shown)
VH: EVHLVESGGGLVQPGGSLKLSCAASGFTFSSYGMSWVRQTPDKRLELVATINNIGGSTFPPDSVKGRFTVSRDNAKNTLYLQMSSLKSEDTAMYYCARAYDYVPFAYWGQGTLVTVSA
VL: DIQMTQSSSYLSVSLGGRVTITCKASDHINNWLAWYQQKPGNAPRLLISGATSLETGVPSRFSGSGSGKDYALSIASLQTEDVATYYCQQYWSTPFTFGSGTKLEIK

target: cynomolgus monkey Nectin-4 protein (KACTUS, Cat. No. NEC-CM104) (cynomolgus monkey); experiment: ELISA screening of hybridoma subclones

binding, binds:
B1
B2
B3
